# According to PubChem BioAssay (Tox21):
# Protein sequences, listed by entry. Tags and fused reporters are not part of them.
# UniProt P11712, whole entry, looked up: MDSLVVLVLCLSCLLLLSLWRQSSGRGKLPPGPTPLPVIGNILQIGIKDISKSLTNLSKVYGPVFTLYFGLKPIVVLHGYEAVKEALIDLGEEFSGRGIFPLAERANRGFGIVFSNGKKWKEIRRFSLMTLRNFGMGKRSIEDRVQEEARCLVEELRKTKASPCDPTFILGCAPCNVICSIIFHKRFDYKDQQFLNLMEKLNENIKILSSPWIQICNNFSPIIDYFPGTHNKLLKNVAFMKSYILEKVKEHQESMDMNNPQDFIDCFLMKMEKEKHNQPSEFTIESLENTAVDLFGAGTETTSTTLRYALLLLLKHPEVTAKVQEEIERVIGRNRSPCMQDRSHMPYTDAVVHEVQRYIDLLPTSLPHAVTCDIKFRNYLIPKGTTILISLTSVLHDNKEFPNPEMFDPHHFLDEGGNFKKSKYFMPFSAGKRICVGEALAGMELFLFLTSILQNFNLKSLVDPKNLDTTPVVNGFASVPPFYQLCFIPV
# Several values for one entry are separate records, joined by “and”; a condition that tells them apart may be missing. Equal values may be shown once. This list was built around the results that the source calls inconclusive (neither active nor inactive); the mix of calls is not that of the screen. Potencies beside an inconclusive call are fits to weak or partial responses and may not hold up. Some structures have more than one record in an assay (separate samples or runs), and their calls can disagree. Activity calls are given as the source filed them. Calls come from the whole dose curve; as a rule, active = well fitted inhibition curve with a large enough effect in the repeat runs; inconclusive = weak or mixed curves; inactive = no such curve, though single readings can be large or run the other way.
# Molecular target: Cytochrome P450 2C9 (Homo sapiens) (UniProt P11712)
# Assay: Cytochrome P450 Family 2 Subfamily C Member 9 (CYP2C9) small molecule antagonists: luciferase reporter qHTS assay (AID 1671198); note: nearly all actives have a fitted effect of over 50% in size
# Conditions: P450-Glo CYP2C9 enzyme assay, luciferin luminescence; series mostly up to 115 µM; activity change, negative = inhibition: at the top concentration
# In short: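 CYP2C9 activity was measured with a P450-Glo proluciferin substrate. Enzyme–substrate mix was held with compound for 10 min at room temperature, then NADPH regeneration solution was added for 1 h at 37C. Luciferin product was read as luminescence.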
# % is set by controls: 0 for no effect and ±100 for the full control effect; potency is the fitted concentration of half-maximal effect.
Compound,Potency,"activity change, negative = inhibition"
O=c1[nH]sc2ccccc12,active: 31.7 µM,
C/C=C/C=N/NC(=O)c1ccncc1,"inconclusive: 15.5 µM [inhibitor, partial curve]",
CCCCCCCCOC(=O)c1cc(O)c(O)c(O)c1,active: 2.24 µM,
CCc1cc(Cc2cc(CC)c(N)c(CC)c2)cc(CC)c1N,"inconclusive: 0.317 µM [inhibitor, full curve, poor fit]",
CCC(C)OC(=O)c1ccc(O)cc1 (configuration not stated),"inconclusive: 63.7 µM [inhibitor, partial curve, poor fit] and inconclusive: 56.4 µM [inhibitor, partial curve, poor fit]",
C[C@]12C=CC(=O)C=C1CC[C@@H]1[C@@H]2[C@@H](O)C[C@@]2(C)[C@H]1CC[C@]2(O)C(=O)CO,"inconclusive: 63.3 µM [inhibitor, partial curve, poor fit]",
CC[C@@]1(O)C(=O)OCc2c1cc1n(c2=O)Cc2c-1nc1ccccc1c2/C=N/OC(C)(C)C,"inconclusive: 27.5 µM [inhibitor, partial curve]",
CC(C)(c1cc(Br)c(OCCO)c(Br)c1)c1cc(Br)c(OCCO)c(Br)c1,active: 4.38 µM,
CCCSS/C(CCO)=C(\C)N(C=O)Cc1cnc(C)nc1N,"inconclusive: 17.4 µM [inhibitor, single point]",
CSc1ccc2c(c1)N(CCC1CCCCN1C)c1ccccc1S2 (configuration not stated),inconclusive: 38.9 µM [inhibitor],
Clc1ccccc1C(c1ccccc1)(c1ccccc1)n1ccnc1,active: 1.12 µM and active: 1.1 µM,
O=C(Cl)c1c(Cl)c(Cl)c(C(=O)Cl)c(Cl)c1Cl,"inactive and inconclusive: 63.3 µM [inhibitor, partial curve, poor fit]",
O=C(Nc1ccc([N+](=O)[O-])cc1Cl)c1cc(Cl)ccc1O,"active: 25.2 µM and inconclusive: 3.38 µM [inhibitor, full curve]",
COc1ccc(OC(=O)N(CC(=O)O)Cc2ccc(OCCc3nc(-c4ccccc4)oc3C)cc2)cc1,active: 13.8 µM,
c1ccc(Nc2cccc3ccccc23)cc1,active: 36.1 µM and active: 35.6 µM,
O=C(O)c1ccc2c(c1)C(=O)OC2=O,inactive,
COc1ccc2[nH]cc(CCNC(C)=O)c2c1,"inconclusive: 19.5 µM [inhibitor, partial curve]",
Cc1c(C)c2c(c(C)c1O)CCC(C)(COc1ccc(CC3SC(=O)NC3=O)cc1)O2 (configuration not stated),active: 5.03 µM and active: 4.9 µM,
CC(C)(C)CC(C)(C)c1ccc(O)c(Cc2ccc(Cl)cc2Cl)c1,active: 5.49 µM,

# Compounds listed so far that contain two or more sulfur atoms (2):
Compound,Potency,"activity change, negative = inhibition"
CCCSS/C(CCO)=C(\C)N(C=O)Cc1cnc(C)nc1N,"inconclusive: 17.4 µM [inhibitor, single point]",
CSc1ccc2c(c1)N(CCC1CCCCN1C)c1ccccc1S2 (configuration not stated),inconclusive: 38.9 µM [inhibitor],

# The results go on:

Compound,Potency,"activity change, negative = inhibition"
[O-][n+]1ccccc1SSc1cccc[n+]1[O-],active: 1.51 µM,
C=C1C[C@H]2[C@@H]3C=C(C)C4=CC(=O)CC[C@]4(C)[C@H]3CC[C@]2(C)[C@@]1(OC(C)=O)C(C)=O,active: 22.9 µM and active: 17.4 µM,
Cc1ccc(-n2[nH]c(C)c(N=Nc3cccc(-c4cccc(C(=O)O)c4)c3O)c2=O)cc1C,inconclusive: 38.9 µM [inhibitor],
c1ccc2cc3ccccc3cc2c1,"inconclusive: 65.3 µM [inhibitor, partial curve] and inconclusive: 35.6 µM [inhibitor, partial curve, poor fit]",
BrC1CCC(Br)C(Br)CCC(Br)C(Br)CCC1Br (configuration not stated),"inconclusive: 11.2 µM [inhibitor, full curve]",
[Cl][Bi]([Cl])([c]1ccccc1)([c]1ccccc1)[c]1ccccc1,active: 1.12 µM,
CCN(CC)CCOC(=O)c1ccc(N)cc1,inactive,
Cc1cc(CCN2CCN(c3nsc4ccccc34)CC2)cc2c1NC(=O)CC2(C)C,active: 39.9 µM,
NC(=O)N/N=C/c1ccc([N+](=O)[O-])o1,inconclusive: 50.2 µM [inhibitor],
CCN(CC)CCOC(=O)C1(C2CCCCC2)CCCCC1,,inactive: 0.655% [at 53 µM]
O=C1OC(=O)c2cc(-c3ccc4c(c3)C(=O)OC4=O)ccc21,,inactive: -11.7%
O=C(O)CN(CC(=O)O)CC(=O)O,"inconclusive: 64.2 µM [inhibitor, partial curve] and inactive",
Cc1nc(-c2ccc3c(c2)CCN(CCC2CCC(NC(=O)/C=C/c4ccc(F)cc4)CC2)CC3)no1 (configuration not stated),"inconclusive: 40 µM [inhibitor, partial curve, poor fit]",
C=C(c1ccc(C(=O)O)cc1)c1cc2c(cc1C)C(C)(C)CCC2(C)C,"inconclusive: 28.3 µM [inhibitor, partial curve] and active: 27.5 µM",
CCC1(c2cnc[nH]2)Cc2ccccc2C1,active: 1.55 µM,
CCCCCCCO,"inconclusive: 80.7 µM [inhibitor, partial curve, poor fit] and inactive",
OC1C(O)C(O)C(O)C(O)C1O (configuration not stated),"inconclusive: 79.6 µM [inhibitor, partial curve] and inactive",
CCCCCCCCCCOCC(O)CN (configuration not stated),active: 13.8 µM,
